Results are given in words; binding and its absence hold for the method and conditions named. In cells and extracts the contact can be indirect. Some results given as binding are weak or reduced against the parent protein; the word gives no strength.
T1: LIPH (Lipase H), full-length human cDNA overexpressed (OE-LIPH) (human) (UniProt Q8WWY8)
T1 sequence: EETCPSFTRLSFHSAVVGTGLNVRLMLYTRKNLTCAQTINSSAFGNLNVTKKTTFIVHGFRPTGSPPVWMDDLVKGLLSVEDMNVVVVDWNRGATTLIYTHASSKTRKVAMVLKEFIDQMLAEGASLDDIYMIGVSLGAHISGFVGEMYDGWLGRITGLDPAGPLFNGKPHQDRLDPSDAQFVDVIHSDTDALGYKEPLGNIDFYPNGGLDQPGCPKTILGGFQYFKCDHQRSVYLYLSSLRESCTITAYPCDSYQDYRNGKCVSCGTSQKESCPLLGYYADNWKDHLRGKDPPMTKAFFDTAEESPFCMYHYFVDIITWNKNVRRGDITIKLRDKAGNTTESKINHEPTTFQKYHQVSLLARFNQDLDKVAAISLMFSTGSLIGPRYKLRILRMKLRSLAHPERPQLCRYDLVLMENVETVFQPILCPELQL

T2: aldolase A (ALDOA) (human (endogenous in MIA PaCa-2)) (UniProt P04075)
T2 sequence: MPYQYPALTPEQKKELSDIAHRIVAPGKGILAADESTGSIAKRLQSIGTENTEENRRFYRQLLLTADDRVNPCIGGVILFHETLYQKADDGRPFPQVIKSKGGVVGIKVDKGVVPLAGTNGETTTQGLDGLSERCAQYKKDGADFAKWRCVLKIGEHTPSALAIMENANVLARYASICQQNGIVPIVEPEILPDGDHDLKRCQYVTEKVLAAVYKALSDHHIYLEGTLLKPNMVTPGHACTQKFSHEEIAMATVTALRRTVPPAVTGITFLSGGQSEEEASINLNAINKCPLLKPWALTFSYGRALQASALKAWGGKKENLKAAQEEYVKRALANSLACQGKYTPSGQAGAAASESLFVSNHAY


How the values were obtained:
[1] = target: T1, LIPH (Lipase H), full-length human cDNA overexpressed (OE-LIPH) (human); assay: co-IP; lysates in IGEPAL CA-630 buffer, FLAG antibody and protein A/G beads overnight at 4 °C, immunoblot for ALDOA; MIA PaCa-2 cells with NC or OE-LIPH vector
[2] = target: T2, aldolase A (ALDOA) (human (endogenous in MIA PaCa-2)); assay: co-IP; lysates in IGEPAL CA-630 buffer, ALDOA antibody and protein A/G beads overnight at 4 °C, immunoblot; MIA PaCa-2 cells transfected with the NC or OE-LIPH vectors

| binding [1] | binding [2] | Binder |
| --- | --- | --- |
| binds |  | aldolase A (ALDOA) (enzyme, UniProt P04075 1-364) MPYQYPALTPEQKKELSDIAHRIVAPGKGILAADESTGSIAKRLQSIGTENTEENRRFYRQLLLTADDRVNPCIGGVILFHETLYQKADDGRPFPQVIKSKGGVVGIKVDKGVVPLAGTNGETTTQGLDGLSERCAQYKKDGADFAKWRCVLKIGEHTPSALAIMENANVLARYASICQQNGIVPIVEPEILPDGDHDLKRCQYVTEKVLAAVYKALSDHHIYLEGTLLKPNMVTPGHACTQKFSHEEIAMATVTALRRTVPPAVTGITFLSGGQSEEEASINLNAINKCPLLKPWALTFSYGRALQASALKAWGGKKENLKAAQEEYVKRALANSLACQGKYTPSGQAGAAASESLFVSNHAY |
|  | binds | UBE2O, an E2/E3 hybrid ubiquitin-protein ligase (enzyme, UniProt Q9C0C9 1-1292) MADPAAPTPAAPAPAQAPAPAPEAVPAPAAAPVPAPAPASDSASGPSSDSGPEAGSQRLLFSHDLVSGRYRGSVHFGLVRLIHGEDSDSEGEEEGRGSSGCSEAGGAGHEEGRASPLRRGYVRVQWYPEGVKQHVKETKLKLEDRSVVPRDVVRHMRSTDSQCGTVIDVNIDCAVKLIGTNCIIYPVNSKDLQHIWPFMYGDYIAYDCWLGKVYDLKNQIILKLSNGARCSMNTEDGAKLYDVCPHVSDSGLFFDDSYGFYPGQVLIGPAKIFSSVQWLSGVKPVLSTKSKFRVVVEEVQVVELKVTWITKSFCPGGTDSVSPPPSVITQENLGRVKRLGCFDHAQRQLGERCLYVFPAKVEPAKIAWECPEKNCAQGEGSMAKKVKRLLKKQVVRIMSCSPDTQCSRDHSMEDPDKKGESKTKSEAESASPEETPDGSASPVEMQDEGAEEPHEAGEQLPPFLLKEGRDDRLHSAEQDADDEAADDTDDTSSVTSSASSTTSSQSGSGTSRKKSIPLSIKNLKRKHKRKKNKITRDFKPGDRVAVEVVTTMTSADVMWQDGSVECNIRSNDLFPVHHLDNNEFCPGDFVVDKRVQSCPDPAVYGVVQSGDHIGRTCMVKWFKLRPSGDDVELIGEEEDVSVYDIADHPDFRFRTTDIVIRIGNTEDGAPHKEDEPSVGQVARVDVSSKVEVVWADNSKTIILPQHLYNIESEIEESDYDSVEGSTSGASSDEWEDDSDSWETDNGLVEDEHPKIEEPPIPPLEQPVAPEDKGVVISEEAATAAVQGAVAMAAPMAGLMEKAGKDGPPKSFRELKEAIKILESLKNMTVEQLLTGSPTSPTVEPEKPTREKKFLDDIKKLQENLKKTLDNVAIVEEEKMEAVPDVERKEDKPEGQSPVKAEWPSETPVLCQQCGGKPGVTFTSAKGEVFSVLEFAPSNHSFKKIEFQPPEAKKFFSTVRKEMALLATSLPEGIMVKTFEDRMDLFSALIKGPTRTPYEDGLYLFDIQLPNIYPAVPPHFCYLSQCSGRLNPNLYDNGKVCVSLLGTWIGKGTERWTSKSSLLQVLISIQGLILVNEPYYNEAGFDSDRGLQEGYENSRCYNEMALIRVVQSMTQLVRRPPEVFEQEIRQHFSTGGWRLVNRIESWLETHALLEKAQALPNGVPKASSSPEPPAVAELSDSGQQEPEDGGPAPGEASQGSDSEGGAQGLASASRDHTDQTSETAPDASVPPSVKPKKRRKSYRSFLPEKSGYPDIGFPLFPLSKGFIKSIRGVLTQFRAALLEAGMPECTEDK |

From publication PMC10664664
